According to PubChem BioAssay AID330 (DTP/NCI, 2004):
The list shows only some results of the screen, not a fair sample: it gathers tests that were run many times, whatever their T/C, doses with no T/C, and many T/C values between a quarter and a half above the control. Further doses and runs are listed elsewhere. T/C is the treated group as % of the vehicle group. Some doses have a count of surviving animals in place of a T/C: the source files T/C as zero there, which appears to mark a toxic dose or a test without result, not a measured value. Some survivor counts are full or nearly so, which does not show that the dose was tolerated: the source hardly ever lists a survival T/C far under the control, and the zero likely stands for such cases as well. Survivors were counted at the toxicity check, usually on the fifth day, unless a day is given; later deaths do not show. Schedules are NCI's codes, taken here to give the interval after Q, in days (D) or hours (H), and the number of doses after X. Some doses were run more than once; the results are listed from low to high. Some molecules as drawn cover several salts, stereoisomers or complexes of the source; a dose is that of the sample tested. Where survival is the endpoint, this PubChem deposit counts one and a half times the control or more as active, and values a quarter to a half above the control carry no call in these data; other NCI protocols may use other cut-offs. Counts like (3×) stand for listed records that agree. Some T/C values carry the count of animals alive at the toxicity check (mostly the fifth day); where none is given, no animal had died by that day.

Test system: P388 leukemia ip, CD2F1 mice, survival T/C
Assay: NCI In Vivo Anticancer Drug Screen. Data for tumor model P388 Leukemia (intraperitoneal) in CD2F1 (CDF1) mice
Settings: T/C endpoint: median survival time, higher T/C = longer survival
[1] = dose: 200.0 mg/kg/injection, schedule: Q01DX005 (ip), vehicle: Klucel (hydroxypropylcellulose) (HPC)
[2] = dose: 50.0 mg/kg/injection, schedule: Q01DX009 (ip), vehicle: saline
[3] = dose: 25.0 mg/kg/injection, schedule: Q01DX009 (ip), vehicle: water
[4] = dose: 100.0 mg/kg/injection, schedule: Q01DX009 (ip), vehicle: saline
[5] = dose: 200.0 mg/kg/injection, schedule: Q01DX009 (ip), vehicle: saline

What does the source list for Cc1[nH]ccc2c(C)c3nc4ccc(O)cc4c3cc12?
T/C (dose: 5.0 mg/kg/injection, schedule: Q04DX002 (ip), vehicle: water): 125 % of control; T/C (dose: 6.25 mg/kg/injection, schedule: Q04DX002 (ip), vehicle: water): 126 % of control; T/C (dose: 10.0 mg/kg/injection, schedule: Q04DX002 (ip), vehicle: water): 130 % of control; T/C (dose: 12.5 mg/kg/injection, schedule: Q04DX002 (ip), vehicle: water): 130 % of control [5 of 6 alive]; T/C (dose: 20.0 mg/kg/injection, schedule: Q04DX002 (ip), vehicle: water): 136 % of control [5 of 6 alive]; T/C (dose: 25.0 mg/kg/injection, schedule: Q04DX002 (ip), vehicle: water): 141 % of control; T/C (dose: 50.0 mg/kg/injection, schedule: Q04DX002 (ip), vehicle: water): 141 % of control [5 of 6 alive]; survivor count (dose: 80.0 mg/kg/injection, schedule: Q04DX002 (ip), vehicle: water): 6 of 6; survivor count (dose: 100.0 mg/kg/injection, schedule: Q04DX002 (ip), vehicle: water): 3 of 6; survivor count (dose: 200.0 mg/kg/injection, schedule: Q04DX002 (ip), vehicle: water): 0 of 6

What does the source list for COc1cc(C=Nc2ccc(Cl)cc2)ccc1N(CCCl)CCCl?
T/C (dose: 1.25 mg/kg/injection, schedule: Q01DX009 (ip), vehicle: saline with Tween-80): 133 % of control; T/C (dose: 1.5 mg/kg/injection, schedule: Q01DX009 (ip), vehicle: saline with Tween-80): 131 % of control; T/C (dose: 100.0 mg/kg/injection, schedule: Q04DX003 (ip), vehicle: saline with Tween-80): 145 % of control [5 of 6 alive]; survivor count (dose: 200.0 mg/kg/injection, schedule: Q04DX003 (ip), vehicle: saline with Tween-80): 3 of 6

CN(C)N=Nc1ccc(NC(N)=O)cc1 was tested. Which survivor count (dose: 200.0 mg/kg/injection, schedule: Q04DX003 (ip), vehicle: saline + Tween-80 + alcohol) did it give?
Its survivor count is 1 of 6.

And the survivor count (dose: 400.0 mg/kg/injection, schedule: Q04DX003 (ip), vehicle: saline + Tween-80 + alcohol)?
Its survivor count is 0 of 6.

For O=C(O)CN=C1C=CC(=NCC(=O)O)C=C1, which survivor count [1] is on record?
Its survivor count is 3 of 6.

Which T/C (dose: 240.0 mg/kg/injection, schedule: Q01DX005 (ip), vehicle: saline with Tween-80) does the source give for COc1ccc(NC(=O)Oc2ccc3c(C)cc(=O)oc3c2)c(OC)c1 (tested in a mixture with another compound) here?
Its T/C is 130 % of control (2×).

And the T/C (dose: 480.0 mg/kg/injection, schedule: Q01DX005 (ip), vehicle: saline with Tween-80)?
Its T/C is 126 % of control.

For COc1ccc2c(c1)[C@@]13CCCC[C@H]1[C@@H](C2)N(C)CC3(C)O (stereo not given in full), which survivor count (dose: 400.0 mg/kg/injection, schedule: Q04DX002 (ip), vehicle: Klucel (hydroxypropylcellulose) (HPC)) is on record?
The survivor count was 6 of 6.

For CC1(c2cccc[n+]2Cc2ccc(Cl)c3ccccc23)OCCO1, which survivor count [2] is on record?
Its survivor count is 0 of 6.

Which results are given for O=C(Nc1nncs1)C(F)(F)F?
T/C [3]: 142 % of control; survivor count (dose: 100.0 mg/kg/injection, schedule: Q01DX009 (ip), vehicle: distilled water + Tween-80): 4 of 6; survivor count (dose: 100.0 mg/kg/injection, schedule: Q01DX009 (ip), vehicle: water): 4 of 6; survivor count (dose: 200.0 mg/kg/injection, schedule: Q01DX009 (ip), vehicle: distilled water + Tween-80): 1 of 6; survivor count (dose: 200.0 mg/kg/injection, schedule: Q01DX009 (ip), vehicle: water): 2 of 6; survivor count (dose: 400.0 mg/kg/injection, schedule: Q01DX009 (ip), vehicle: distilled water + Tween-80): 0 of 6

Which results are given for O=C(O)/C=N/NS(=O)(=O)Cc1ccccc1?
T/C (dose: 12.5 mg/kg/injection, schedule: Q01DX009 (ip), vehicle: other): 127 and 139 % of control; T/C (dose: 25.0 mg/kg/injection, schedule: Q01DX009 (ip), vehicle: other): 128 and 129 % of control; T/C (dose: 50.0 mg/kg/injection, schedule: Q01DX009 (ip), vehicle: other): 142 and 146 % of control; T/C (dose: 100.0 mg/kg/injection, schedule: Q01DX009 (ip), vehicle: other): 147 % of control [5 of 6 alive]; survivor count (dose: 400.0 mg/kg/injection, schedule: Q01DX009 (ip), vehicle: other): 5 of 6

For CC1=NN(c2ccccc2)C/C1=N\O, which survivor count [1] is on record?
The survivor count was 0 of 6.

What does the source list for CC(=O)SCN1CCCCC1?
T/C [2]: 132 % of control; T/C [4]: 127 and 137 % of control; survivor count [5]: 2 of 6; survivor count (dose: 200.0 mg/kg/injection, schedule: Q04DX002 (ip), vehicle: saline): 2 of 6; survivor count (dose: 400.0 mg/kg/injection, schedule: Q04DX002 (ip), vehicle: saline): 0 of 6

Which results are given for COc1ccc2[nH]c(C)cc2c1CN?
survivor count (dose: 12.5 mg/kg/injection, schedule: Q01DX009 (ip), vehicle: saline): 6 of 6; survivor count (dose: 25.0 mg/kg/injection, schedule: Q01DX009 (ip), vehicle: saline): 0 of 6; survivor count [2]: 0 of 6; survivor count [4]: 0 of 6; survivor count [5]: 0 of 6

Which results are given for Cc1c2ccn(CCCCCCCCn3ccc4c(C)c5nc6ccccc6c5c(C)c4c3)cc2c(C)c2c1nc1ccccc12?
T/C (dose: 6.25 mg/kg/injection, schedule: Q04DX003 (ip), vehicle: distilled water + Tween-80, evaluated on day 30): 125 % of control; T/C (dose: 6.25 mg/kg/injection, schedule: Q04DX003 (ip), vehicle: distilled water + Tween-80, evaluated on day 60): 127 % of control; T/C (dose: 12.5 mg/kg/injection, schedule: Q04DX003 (ip), vehicle: distilled water + Tween-80, evaluated on day 30): 131 and 136 % of control; T/C (dose: 12.5 mg/kg/injection, schedule: Q04DX003 (ip), vehicle: distilled water + Tween-80, evaluated on day 60): 127 % of control; T/C (dose: 25.0 mg/kg/injection, schedule: Q04DX003 (ip), vehicle: distilled water + Tween-80, evaluated on day 30): 140 % of control; T/C (dose: 25.0 mg/kg/injection, schedule: Q04DX003 (ip), vehicle: distilled water + Tween-80, evaluated on day 60): 138 % of control; T/C (dose: 50.0 mg/kg/injection, schedule: Q04DX003 (ip), vehicle: distilled water + Tween-80, evaluated on day 30): 142 % of control; T/C (dose: 50.0 mg/kg/injection, schedule: Q04DX003 (ip), vehicle: distilled water + Tween-80, evaluated on day 60): 138 % of control; survivor count (dose: 50.0 mg/kg/injection, schedule: Q04DX003 (ip), vehicle: distilled water + Tween-80): 2 of 6; survivor count (dose: 100.0 mg/kg/injection, schedule: Q04DX003 (ip), vehicle: distilled water + Tween-80): 0 of 6 and 4 of 6; survivor count (dose: 200.0 mg/kg/injection, schedule: Q04DX003 (ip), vehicle: distilled water + Tween-80): 1 of 6

For c1cc2cc(-c3ccc4cc(C5=NCCN5)[nH]c4c3)[nH]c2cc1C1=NCCN1, which T/C (dose: 200.0 mg/kg/injection, schedule: Q04DX003 (ip), vehicle: saline) is on record?
The T/C was 137 % of control [5 of 6 alive].

And the survivor count (dose: 400.0 mg/kg/injection, schedule: Q04DX003 (ip), vehicle: saline)?
The survivor count was 2 of 6.

Which T/C [5] does the source give for C[Si](C)(C)O/C=C1/CCOC1=O here?
The T/C was 125 % of control.

O=CC1CO1 (stereo not given) was tested. Which T/C [2] did it give?
Its T/C is 127 % of control.

What about the survivor count [4] of the same molecule?
Its survivor count is 4 of 6.

And the T/C (dose: 100.0 mg/kg/injection, schedule: Q04DX003 (ip), vehicle: saline)?
The T/C was 125 % of control.

N=c1ccc([N+](=O)[O-])cn1O was tested. Which survivor count [5] did it give?
The survivor count was 4 of 6.

Which T/C (dose: 6.25 mg/kg/injection, schedule: Q01DX009 (ip), vehicle: water) does the source give for O=NNc1ccc(SSc2ccc(NN=O)cc2)cc1 here?
The T/C was 128 % of control.

What about the survivor count (dose: 12.5 mg/kg/injection, schedule: Q01DX009 (ip), vehicle: water) of the same molecule?
Its survivor count is 2 of 6.

And the survivor count [3]?
Its survivor count is 0 of 6.

What about the survivor count (dose: 50.0 mg/kg/injection, schedule: Q01DX009 (ip), vehicle: water) of the same molecule?
Its survivor count is 0 of 6.
